Read-outs that look alike come from different tables or passages of the source. No constants are given. Whether binding was seen depends on the method and setting. In cells and extracts the contact can be indirect. Some binding calls cover weakened binding; strength is not graded here. For some of these results: Where a sequence is shown, tags or fusion partners need not be part of it.
T1: FLAG-tagged ZFC3H1 N-terminal region (residues 1-990) (UniProt O60293)
T1 sequence: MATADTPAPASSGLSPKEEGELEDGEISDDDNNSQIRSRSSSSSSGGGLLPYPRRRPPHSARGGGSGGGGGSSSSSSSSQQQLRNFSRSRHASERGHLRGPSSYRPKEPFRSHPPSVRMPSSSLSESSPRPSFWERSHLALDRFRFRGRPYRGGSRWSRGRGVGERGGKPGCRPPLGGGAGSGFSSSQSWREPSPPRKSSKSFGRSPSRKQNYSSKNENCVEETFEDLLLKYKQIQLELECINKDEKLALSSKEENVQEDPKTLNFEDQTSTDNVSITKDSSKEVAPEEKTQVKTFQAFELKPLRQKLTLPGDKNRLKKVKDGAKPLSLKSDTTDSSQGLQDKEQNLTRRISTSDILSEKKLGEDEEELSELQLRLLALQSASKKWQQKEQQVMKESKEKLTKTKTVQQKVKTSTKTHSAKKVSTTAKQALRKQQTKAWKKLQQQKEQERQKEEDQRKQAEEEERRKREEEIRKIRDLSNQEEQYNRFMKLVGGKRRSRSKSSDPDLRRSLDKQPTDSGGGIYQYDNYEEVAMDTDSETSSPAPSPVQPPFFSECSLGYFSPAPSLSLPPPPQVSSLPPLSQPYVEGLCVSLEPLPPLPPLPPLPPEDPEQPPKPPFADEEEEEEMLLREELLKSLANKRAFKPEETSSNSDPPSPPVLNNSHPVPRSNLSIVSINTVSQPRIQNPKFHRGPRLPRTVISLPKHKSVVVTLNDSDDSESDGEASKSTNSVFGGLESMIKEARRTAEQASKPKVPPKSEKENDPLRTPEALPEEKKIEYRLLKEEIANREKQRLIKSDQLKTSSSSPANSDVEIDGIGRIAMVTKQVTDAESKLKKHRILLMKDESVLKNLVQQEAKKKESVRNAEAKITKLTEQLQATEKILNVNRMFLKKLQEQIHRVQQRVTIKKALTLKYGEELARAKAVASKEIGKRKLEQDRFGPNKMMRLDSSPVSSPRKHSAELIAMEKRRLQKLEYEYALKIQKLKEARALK

Sequences of proteins named here, by UniProt entry; tags and fusion partners are left off.
UniProt O95639: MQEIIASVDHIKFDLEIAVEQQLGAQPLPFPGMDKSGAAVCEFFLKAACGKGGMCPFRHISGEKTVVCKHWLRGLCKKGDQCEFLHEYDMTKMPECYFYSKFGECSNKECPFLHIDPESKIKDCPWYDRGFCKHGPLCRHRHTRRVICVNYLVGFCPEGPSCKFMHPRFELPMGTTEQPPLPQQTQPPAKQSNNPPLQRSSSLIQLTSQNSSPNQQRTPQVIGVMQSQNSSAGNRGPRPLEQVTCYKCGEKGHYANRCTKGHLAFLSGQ

T2: FLAG-tagged ZFC3H1, full length, O60293
T2 chain: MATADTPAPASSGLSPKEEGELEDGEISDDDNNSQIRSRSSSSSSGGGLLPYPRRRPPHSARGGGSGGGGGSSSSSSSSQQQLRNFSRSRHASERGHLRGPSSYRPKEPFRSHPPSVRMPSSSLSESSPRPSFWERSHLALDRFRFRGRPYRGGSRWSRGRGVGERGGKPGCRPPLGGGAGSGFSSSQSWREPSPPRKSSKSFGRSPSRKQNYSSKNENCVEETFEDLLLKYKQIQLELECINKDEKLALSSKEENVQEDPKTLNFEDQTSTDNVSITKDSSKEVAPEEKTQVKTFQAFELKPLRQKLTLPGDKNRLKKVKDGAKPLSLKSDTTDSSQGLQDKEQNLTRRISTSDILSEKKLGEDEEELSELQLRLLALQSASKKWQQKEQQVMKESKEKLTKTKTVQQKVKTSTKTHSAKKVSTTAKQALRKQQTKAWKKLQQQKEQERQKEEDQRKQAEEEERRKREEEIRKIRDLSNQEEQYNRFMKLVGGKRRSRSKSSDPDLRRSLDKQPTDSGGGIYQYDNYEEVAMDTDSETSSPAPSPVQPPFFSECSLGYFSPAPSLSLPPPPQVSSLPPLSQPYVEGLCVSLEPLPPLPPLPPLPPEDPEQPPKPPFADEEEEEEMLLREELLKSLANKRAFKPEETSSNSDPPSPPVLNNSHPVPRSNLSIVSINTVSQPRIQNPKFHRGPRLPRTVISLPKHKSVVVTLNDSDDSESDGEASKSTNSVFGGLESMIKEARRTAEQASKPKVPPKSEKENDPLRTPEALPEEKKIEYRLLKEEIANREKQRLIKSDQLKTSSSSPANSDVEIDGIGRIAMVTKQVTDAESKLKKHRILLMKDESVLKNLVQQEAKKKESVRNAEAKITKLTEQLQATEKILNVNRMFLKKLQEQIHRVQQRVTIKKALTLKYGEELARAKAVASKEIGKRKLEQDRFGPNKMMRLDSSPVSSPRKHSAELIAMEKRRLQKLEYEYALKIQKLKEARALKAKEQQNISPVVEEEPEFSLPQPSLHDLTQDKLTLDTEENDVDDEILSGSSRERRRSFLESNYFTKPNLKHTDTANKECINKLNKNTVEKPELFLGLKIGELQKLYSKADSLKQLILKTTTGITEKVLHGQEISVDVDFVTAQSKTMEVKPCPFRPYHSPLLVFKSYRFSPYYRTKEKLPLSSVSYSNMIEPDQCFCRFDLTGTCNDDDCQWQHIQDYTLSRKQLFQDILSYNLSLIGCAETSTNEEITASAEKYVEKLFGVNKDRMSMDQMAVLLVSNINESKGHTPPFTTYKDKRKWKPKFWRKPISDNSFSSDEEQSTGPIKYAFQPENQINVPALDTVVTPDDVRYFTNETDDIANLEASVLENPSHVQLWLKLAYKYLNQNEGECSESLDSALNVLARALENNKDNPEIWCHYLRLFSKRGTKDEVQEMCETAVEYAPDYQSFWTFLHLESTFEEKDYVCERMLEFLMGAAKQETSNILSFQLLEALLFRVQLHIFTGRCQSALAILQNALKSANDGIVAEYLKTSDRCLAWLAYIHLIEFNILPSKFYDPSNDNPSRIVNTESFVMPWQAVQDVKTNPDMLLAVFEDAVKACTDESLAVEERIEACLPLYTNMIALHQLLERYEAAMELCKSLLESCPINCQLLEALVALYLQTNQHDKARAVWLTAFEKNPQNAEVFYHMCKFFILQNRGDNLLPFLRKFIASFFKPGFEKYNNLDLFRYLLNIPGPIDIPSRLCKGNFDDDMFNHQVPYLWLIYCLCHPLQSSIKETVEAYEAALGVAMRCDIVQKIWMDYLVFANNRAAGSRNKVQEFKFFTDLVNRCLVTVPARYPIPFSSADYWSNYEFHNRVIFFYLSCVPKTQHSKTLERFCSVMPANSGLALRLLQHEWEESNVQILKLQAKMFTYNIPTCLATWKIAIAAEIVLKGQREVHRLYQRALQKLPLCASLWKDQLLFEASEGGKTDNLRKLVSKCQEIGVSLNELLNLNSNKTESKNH


What was measured:
Experiment in all cases: co-IP
[1] = biological target: FLAG-tagged ZFC3H1, full length (UniProt O60293)
[2] = biological target: T1, FLAG-tagged ZFC3H1 N-terminal region (residues 1-990)
[3] = biological target: FLAG-tagged ZFC3H1, full length (UniProt O60293); remark: listed apart in the source
[4] = biological target: T1, FLAG-tagged ZFC3H1 N-terminal region (residues 1-990); remark: listed apart in the source
[5] = biological target: FLAG-tagged ZFC3H1, full length (UniProt O60293); remark: listed apart in the source
[6] = biological target: T2, FLAG-tagged ZFC3H1, full length, O60293; details: remark: other sources report otherwise

Molecule	binding [1]	binding [2]	binding [3]	binding [4]	binding [5]	binding [6]
PABPN1, Q86U42 1-306 (protein) MAAAAAAAAAAGAAGGRGSGPGRRRHLVPGAGGEAGEGAPGGAGDYGNGLESEELEPEELLLEPEPEPEPEEEPPRPRAPPGAPGPGPGSGAPGSQEEEEEPGLVEGDPGDGAIEDPELEAIKARVREMEEEAEKLKELQNEVEKQMNMSPPPGNAGPVIMSIEEKMEADARSIYVGNVDYGATAEELEAHFHGCGSVNRVTILCDKFSGHPKGFAYIEFSDKESVRTSLALDESLFRGRQIKVIPKRTNRPGISTTDRGFPRARYRARTTNYNSSRSRFYSGFNSRPRGRVYRGRARATSWYSPY	–	–	–	–	–	binds
CPSF100 (protein, UniProt Q9P2I0 1-782) MTSIIKLTTLSGVQEESALCYLLQVDEFRFLLDCGWDEHFSMDIIDSLRKHVHQIDAVLLSHPDPLHLGALPYAVGKLGLNCAIYATIPVYKMGQMFMYDLYQSRHNTEDFTLFTLDDVDAAFDKIQQLKFSQIVNLKGKGHGLSITPLPAGHMIGGTIWKIVKDGEEEIVYAVDFNHKREIHLNGCSLEMLSRPSLLITDSFNATYVQPRRKQRDEQLLTNVLETLRGDGNVLIAVDTAGRVLELAQLLDQIWRTKDAGLGVYSLALLNNVSYNVVEFSKSQVEWMSDKLMRCFEDKRNNPFQFRHLSLCHGLSDLARVPSPKVVLASQPDLECGFSRDLFIQWCQDPKNSIILTYRTTPGTLARFLIDNPSEKITEIELRKRVKLEGKELEEYLEKEKLKKEAAKKLEQSKEADIDSSDESDIEEDIDQPSAHKTKHDLMMKGEGSRKGSFFKQAKKSYPMFPAPEERIKWDEYGEIIKPEDFLVPELQATEEEKSKLESGLTNGDEPMDQDLSDVPTKCISTTESIEIKARVTYIDYEGRSDGDSIKKIINQMKPRQLIIVHGPPEASQDLAECCRAFGGKDIKVYMPKLHETVDATSETHIYQVRLKDSLVSSLQFCKAKDAELAWIDGVLDMRVSKVDTGVILEEGELKDDGEDSEMQVEAPSDSSVIAQQKAMKSLFGDDEKETGEESEIIPTLEPLPPHEVPGHQSVFMNEPRLSDFKQVLLREGIQAEFVGGVLVCNNQVAVRRTETGRIGLEGCLCQDFYRIRDLLYEQYAIV	binds weakly	–	–	binds	binds weakly	–

Second part, the molecule after the results:

binding [1]	binding [2]	binding [3]	binding [4]	binding [5]	binding [6]	Molecule
binds weakly	binds	binds weakly	–	–	–	CPSF30 (from UniProt O95639 1-269)
binds weakly	–	–	binds	binds weakly	–	CPSF73 (protein, UniProt Q9UKF6 1-684) MSAIPAEESDQLLIRPLGAGQEVGRSCIILEFKGRKIMLDCGIHPGLEGMDALPYIDLIDPAEIDLLLISHFHLDHCGALPWFLQKTSFKGRTFMTHATKAIYRWLLSDYVKVSNISADDMLYTETDLEESMDKIETINFHEVKEVAGIKFWCYHAGHVLGAAMFMIEIAGVKLLYTGDFSRQEDRHLMAAEIPNIKPDILIIESTYGTHIHEKREEREARFCNTVHDIVNRGGRGLIPVFALGRAQELLLILDEYWQNHPELHDIPIYYASSLAKKCMAVYQTYVNAMNDKIRKQININNPFVFKHISNLKSMDHFDDIGPSVVMASPGMMQSGLSRELFESWCTDKRNGVIIAGYCVEGTLAKHIMSEPEEITTMSGQKLPLKMSVDYISFSAHTDYQQTSEFIRALKPPHVILVHGEQNEMARLKAALIREYEDNDEVHIEVHNPRNTEAVTLNFRGEKLAKVMGFLADKKPEQGQRVSGILVKRNFNYHILSPCDLSNYTDLAMSTVKQTQAIPYTGPFNLLCYQLQKLTGDVEELEIQEKPALKVFKNITVIQEPGMVVLEWLANPSNDMYADTVTTVILEVQSNPKIRKGAVQKVSKKLEMHVYSKRLEIMLQDIFGEDCVSVKDDSILSVTVDGKTANLNLETRTVECEEGSEDDESLREMVELAAQRLYEALTPVH

Source: paper doi:10.1101/2024.07.23.604837
